Source: US12699083B2, “Device for continuous measurement of cardiac activity” (The Hospital for Sick Children, priority 2018, dated 2026)

Columns and labels:
[1] = tested on: cardiomyocytes; conditions: 1-30 nM, patch clamp; cited from earlier work
[2] = tested on: Neonatal rat cardiomyocytes; conditions: 5 nM to 50 nM; cited from earlier work
[3] = tested on: hiPSC-CM monolayers; experiment: Drug test on hiPSC-CM monolayers cultured on CNT-PDMS device arrays (contractile stress, beating rate, beating rhythm from CNT sensor resistance)

Question: With Cc1cccc(CCN2CCC(C(=O)c3ccc(NS(C)(=O)=O)cc3)CC2)n1 [E-4031] as the compound, how does the “duration of field potential” value [1] read?
Answer: prolonged

Question: And the arrhythmic beating [2]?
Answer: did not occur

Question: What about the “concentration that caused arrhythmic beating of hiPS-CMs (cardiotoxicity)” value [3] of the same compound?
Answer: > 600 nM

Question: What about the “beating rate pattern (arrhythmic beating)” value ([3]; 0.10 μM and 0.20 μM E-4031) of the same compound?
Answer: two spikes of beating rates
